Assay results from patent US20200247889A1.
Results are given in words; binding and its absence hold for the method and conditions named. Some entries that bind do so weakly or less than the wild type.

Molecular target: T1, mouse TREM1 (mouse) (UniProt Q9JKE2)
T1 sequence (looked up): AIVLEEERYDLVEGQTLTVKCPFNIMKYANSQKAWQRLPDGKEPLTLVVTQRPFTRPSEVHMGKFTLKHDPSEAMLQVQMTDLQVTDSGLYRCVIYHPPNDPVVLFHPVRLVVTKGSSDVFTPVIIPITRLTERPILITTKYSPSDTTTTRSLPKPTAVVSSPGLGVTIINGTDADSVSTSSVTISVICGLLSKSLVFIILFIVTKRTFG
Test: in vivo receptor occupancy, flow cytometry of tumor cells

B1: Pi-9069s (antibody, human IgG1, kappa, V domains shown)
VH: EVQLVESGGGLVQPGGSLRLSCAASGFDLYSSYIHWVRQAPGKGLEWVASIYPSYGYTYYADSVKGRFTISADTSKNTAYLQMNSLRAEDTAVYYCARSHSYVHGAMDYWGQGTLVTVSS
VL: DIQMTQSPSSLSASVGDRVTITCRASQSVSSAVAWYQQKPGKAPKLLIYSASSLYSGVPSRFSGSRSGTDFTLTISSLQPEDFATYYCQQYWWVPAAPITFGQGTKVEIKR
binding: binds
